Reference: paper PMC9663298
Results are given in words; binding and its absence hold for the method and conditions named. Binding seen in cells or lysates may run through a third protein. A yes stands for co-enrichment or nearness to the bait. Other partners may have been found.

Chains of the proteins cited; added tags and fusions are not shown.
UniProt P17844: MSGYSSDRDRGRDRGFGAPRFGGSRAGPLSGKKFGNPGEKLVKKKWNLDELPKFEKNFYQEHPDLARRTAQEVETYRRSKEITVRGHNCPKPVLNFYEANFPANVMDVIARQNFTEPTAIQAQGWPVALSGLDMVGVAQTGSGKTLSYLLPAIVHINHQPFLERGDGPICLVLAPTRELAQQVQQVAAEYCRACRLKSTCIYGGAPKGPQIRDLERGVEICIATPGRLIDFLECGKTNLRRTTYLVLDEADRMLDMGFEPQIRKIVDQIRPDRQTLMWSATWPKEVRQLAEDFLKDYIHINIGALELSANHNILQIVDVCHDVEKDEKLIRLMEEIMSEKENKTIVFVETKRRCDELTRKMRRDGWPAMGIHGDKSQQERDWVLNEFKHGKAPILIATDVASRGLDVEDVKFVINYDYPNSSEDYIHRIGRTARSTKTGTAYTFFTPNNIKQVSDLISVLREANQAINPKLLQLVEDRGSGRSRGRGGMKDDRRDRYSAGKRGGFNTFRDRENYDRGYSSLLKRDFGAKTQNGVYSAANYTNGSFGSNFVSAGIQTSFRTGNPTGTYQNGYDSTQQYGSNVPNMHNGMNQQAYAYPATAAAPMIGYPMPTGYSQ
UniProt Q92841: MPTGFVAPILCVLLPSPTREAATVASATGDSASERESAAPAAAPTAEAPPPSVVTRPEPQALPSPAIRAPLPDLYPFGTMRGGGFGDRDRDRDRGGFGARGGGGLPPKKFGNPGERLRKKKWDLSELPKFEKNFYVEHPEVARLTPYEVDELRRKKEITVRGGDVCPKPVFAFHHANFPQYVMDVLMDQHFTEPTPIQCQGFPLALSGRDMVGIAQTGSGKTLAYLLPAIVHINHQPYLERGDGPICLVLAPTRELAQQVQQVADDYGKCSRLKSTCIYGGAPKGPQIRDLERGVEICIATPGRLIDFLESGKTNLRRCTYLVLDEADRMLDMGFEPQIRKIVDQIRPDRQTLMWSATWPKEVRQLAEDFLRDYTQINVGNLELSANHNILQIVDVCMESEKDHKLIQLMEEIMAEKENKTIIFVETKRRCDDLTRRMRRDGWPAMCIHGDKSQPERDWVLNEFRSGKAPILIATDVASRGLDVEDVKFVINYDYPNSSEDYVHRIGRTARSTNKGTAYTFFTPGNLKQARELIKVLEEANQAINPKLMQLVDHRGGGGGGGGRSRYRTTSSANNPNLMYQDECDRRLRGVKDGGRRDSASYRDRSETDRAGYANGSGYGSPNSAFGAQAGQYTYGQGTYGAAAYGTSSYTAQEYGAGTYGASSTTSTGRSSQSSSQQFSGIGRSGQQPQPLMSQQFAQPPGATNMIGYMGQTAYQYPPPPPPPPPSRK
UniProt Q07955: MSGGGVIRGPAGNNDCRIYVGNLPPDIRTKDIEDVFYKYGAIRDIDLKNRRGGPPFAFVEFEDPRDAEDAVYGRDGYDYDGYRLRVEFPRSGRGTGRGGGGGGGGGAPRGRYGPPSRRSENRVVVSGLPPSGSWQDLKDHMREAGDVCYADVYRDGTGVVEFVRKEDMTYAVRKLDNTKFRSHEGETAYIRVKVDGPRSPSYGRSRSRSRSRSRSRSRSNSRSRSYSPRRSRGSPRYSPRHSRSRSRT

Target: RNA helicase DDX5 (human (endogenous in NHEKs)) (UniProt P17844)
Assay: affinity purification with mass spectrometry; NHEK lysate incubated with DDX5 antibody at 4 °C, protein A/G agarose beads; rabbit IgG control; Coomassie-stained bands cut and digested

binding	Substance
binds	DDX17 (from UniProt Q92841 1-729)
binds	splicing factor SF2 (also known as SRSF1) (from UniProt Q07955 1-248)
